These are yes or no findings as the source states them, for the method shown. Binding seen in cells or lysates may run through a third protein.
Target: PSKH2 with the C-terminal tail deleted, C-terminal MYC epitope (human)
Test: co-IP; C-terminal MYC-tagged PSKH2 or variants precipitated from HEK-293T lysate with anti-c-Myc agarose (lysis buffer with 1% DDM), immunoblot of endogenous partners

| binding | Binder |
| --- | --- |
| no binding | FKBP5 (protein, UniProt Q13451 1-457) MTTDEGAKNNEESPTATVAEQGEDITSKKDRGVLKIVKRVGNGEETPMIGDKVYVHYKGKLSNGKKFDSSHDRNEPFVFSLGKGQVIKAWDIGVATMKKGEICHLLCKPEYAYGSAGSLPKIPSNATLFFEIELLDFKGEDLFEDGGIIRRTKRKGEGYSNPNEGATVEIHLEGRCGGRMFDCRDVAFTVGEGEDHDIPIGIDKALEKMQREEQCILYLGPRYGFGEAGKPKFGIEPNAELIYEVTLKSFEKAKESWEMDTKEKLEQAAIVKEKGTVYFKGGKYMQAVIQYGKIVSWLEMEYGLSEKESKASESFLLAAFLNLAMCYLKLREYTKAVECCDKALGLDSANEKGLYRRGEAQLLMNEFESAKGDFEKVLEVNPQNKAARLQISMCQKKAKEHNERDRRIYANMFKKFAEQDAKEEANKAMGKKTSEGVTNEKGTDSQAMEEEKPEGHV |
| no binding | Cdc37 (protein, UniProt Q16543 1-378) MVDYSVWDHIEVSDDEDETHPNIDTASLFRWRHQARVERMEQFQKEKEELDRGCRECKRKVAECQRKLKELEVAEGGKAELERLQAEAQQLRKEERSWEQKLEEMRKKEKSMPWNVDTLSKDGFSKSMVNTKPEKTEEDSEEVREQKHKTFVEKYEKQIKHFGMLRRWDDSQKYLSDNVHLVCEETANYLVIWCIDLEVEEKCALMEQVAHQTIVMQFILELAKSLKVDPRACFRQFFTKIKTADRQYMEGFNDELEAFKERVRGRAKLRIEKAMKEYEEEERKKRLGPGGLDPVEVYESLPEELQKCFDVKDVQMLQDAISKMDPTDAKYHMQRCIDSGLWVPNSKASEAKEGEEAGPGDPLLEAVPKTGDEKDVSV |
